This passage reports binding results from PMC5630020 (Genes & Development, 2017).

The test addresses E. coli SspA(G97I) (E. coli) (UniProt P0ACA3). Description: SEC; both purified. (SEC sorts molecules by how far they enter the pores of the column.)

No constants are given. Whether binding was seen depends on the method and setting.

B1: E. coli SspA(G97I) (protein, UniProt P0ACA3 1-212)
chain: MAVAANKRSVMTLFSGPTDIYSHQVRIVLAEKGVSFEIEHVEKDNPPQDLIDLNPNQSVPTLVDRELTLWESRIIMEYLDERFPHPPLMPVYPVARIESRLYMHRIEKDWYTLMNTIINGSASEADAARKQLREELLAIAPVFGQKPYFLSDEFSLVDCYLAPLLWRLPQLGIEFSGPGAKELKGYMTRVFERDSFLASLTEAEREMRLGRS
For B1, the binding result was “no binding”.
